Here are results for 1 molecule from PMC9028714 (Journal of Personalized Medicine, 2022).

Data set [1] concerns P-gp.
Data set [2] deals with P-gp. As to the kind of experiment: clinical. The conditions noted are these: human, capillary whole blood (dried blood spots), po, 25 mg, probe fexofenadine, AUCfexofenadine (AUC0–6h), mean ± SD, fexofenadine 25 mg orally.

Like-named read-outs stand apart in the source and are kept apart here.

In the case of `CC(C)(C(=O)O)c1ccc(C(O)CCCN2CCC(C(O)(c3ccccc3)c3ccccc3)CC2)cc1` (stereo not shown) [fexofenadine], the “inter-individual variability (CV) of AUCfexofenadine” value is given as 67.2% with P-gp [1] (apixaban cohort) and 71.5% with P-gp [1] (rivaroxaban cohort). In addition, the AUC(0-t) in the data set on P-gp [2] (apixaban cohort) turned out to be 265 ± 178 ng·h/mL; in the data set on P-gp [2] (rivaroxaban cohort), 238 ± 170 ng·h/mL.
